Experimental data taken from patent publication US4978744A (Arizona Board of Regents, priority 1989, dated 1990).

Assay: general procedure: solution-phase peptide synthesis; pivaloyl anhydride coupling for the N-methyl amino acid (Dil)

## dolastatin 10
  step yield: 74%
